Assay results taken from paper PMC12040169 (PLOS Biology, 2025).

Assay: in vitro
Conditions: human, hela cells, % viability

Compound | viability at 28.5 h, 10 µM
NC(=O)c1cc(-c2ccccc2)sc1N [CBK016888] | 91%
FC(F)(F)c1cc(-c2ccco2)nc2ncnn12 [CBK027878] | 103%
Cc1ccc(SCc2nc(-c3cccnc3)no2)cc1 [CBK267679] | 89.1%
Cc1cc(C)n(C(=O)C(C)n2nc([N+](=O)[O-])c(Br)c2C)n1 (stereo not shown) [CBK269121] | 95.7%
